Laboratory results: PubChem BioAssay AID1053208 (Peter MacCallum Cancer Centre, 2014)

Test: 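Genes whose silencing cuts survival of bone tumour cells only with doxorubicin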 (primary screen)
Cells: mouse osteosarcoma cells, early-passage culture from an engineered mouse model of fibroblastic bone tumour
Knock-down reagent: siRNA pool against mouse genes, 40 nM
Timing: about 120 h (48 h before drug, then 72 h with drug)
Conditions: doxorubicin 100 nM for 72 h, roughly 30-40% inhibitory dose
Measured: 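Luminescent ATP signal taken as viability with or without 100 nM doxorubicin for 72 h; mean of two wells set against non-targeting siRNA and turned into robust z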
Direction: viability z-score with doxorubicin: higher = more viable cells under doxorubicin; viability z-score without drug: higher = more viable cells with knock-down alone; z-score of drug to no-drug ratio: higher = less drug sensitisation by knock-down
Active means: 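Called active if knock-down leaves viability unchanged without drug (z within -2 to 2) but lowers it with doxorubicin (z at or under -2)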
Here is an unselected part of about 17,000 reagents. Over the whole deposit, 788 (4.7%) are marked active. 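Calls rest on z-score classes alone; an extra cut-off of viability at most 70% of control was not applied to them.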 Entries without a mark were called inactive. Reagents against one gene are numbered here. Not all columns of the deposit are shown.

| target gene | pool no. | combined z-score class | viability z-score with doxorubicin | viability z-score without drug | z-score of drug to no-drug ratio |
| --- | --- | --- | --- | --- | --- |
| C530047H08Rik | 1 | no change with or without drug | 0.11 | 0.84 | -0.34 |
| Rufy3 | 1 | no change with or without drug | -0.22 | -0.67 | 0.34 |
| Cdk5r2 | 1 | high cell count with doxorubicin only | 2.02 | 0.51 | 1.8 |
| Srrt | 1 | no change with or without drug | 0.22 | -0.17 | 0.45 |
| Or4c112 | 1 | low cell count with doxorubicin only (active) | -2.7 | -1.52 | -1.91 |
| Dusp13b | 1 | no change with or without drug | 0.34 | 0.84 | -0.11 |
| Or1o11 | 1 | no change with or without drug | -0.67 | 0 | -0.56 |
| Ercc8 | 1 | no change with or without drug | 0.9 | 0.51 | 0.67 |
| Neu2 | 1 | no change with or without drug | 0 | -0.17 | 0.22 |
| Lyplal1 | 1 | no change with or without drug | 0.22 | 0.51 | 0 |
| Pkd1l2 | 1 | no change with or without drug | -0.9 | 0.51 | -1.12 |
| Mul1 | 1 | no change with or without drug | 1.91 | -0.34 | 2.36 |
| Pdk3 | 1 | no change with or without drug | 0.22 | -1.18 | 1.24 |
| Sergef | 1 | no change with or without drug | 0 | -0.84 | 0.67 |
| Antkmt | 1 | no change with or without drug | -0.45 | -0.84 | 0.22 |
| Stxbp2 | 1 | no change with or without drug | 0.79 | 0.34 | 0.67 |
| Ints9 | 1 | no change with or without drug | -0.67 | 0.17 | -0.67 |
| Slc39a7 | 1 | low cell count with doxorubicin only (active) | -3.6 | -0.51 | -3.48 |
| Cd1d2 | 1 | no change with or without drug | 0.67 | 0.84 | 0.22 |
| Rps6ka4 | 1 | no change with or without drug | 1.46 | 0.17 | 1.46 |
| Klf10 | 1 | no change with or without drug | -1.35 | 0.17 | -1.46 |
| Or5d20 | 1 | low cell count with and without drug | -3.37 | -4.22 | -0.79 |
| Dstn | 1 | no change with or without drug | 0 | 0.34 | -0.11 |
| Fhl1 | 1 | no change with or without drug | 0.34 | 0.51 | 0.11 |
| Meltf | 1 | low cell count with doxorubicin only (active) | -4.5 | -1.85 | -3.82 |
| Thap3 | 1 | no change with or without drug | -1.8 | -0.67 | -1.35 |
| Flrt2 | 1 | no change with or without drug | 0.11 | 1.52 | -0.79 |
| Xbp1 | 1 | no change with or without drug | -0.67 | 0.34 | -0.79 |
| Osgep | 1 | low cell count with doxorubicin only (active) | -2.47 | -1.85 | -1.35 |
| Csrp3 | 1 | no change with or without drug | 1.91 | -0.17 | 2.25 |
| Nat9 | 1 | no change with or without drug | -0.67 | 0.67 | -1.01 |
| Gm9801 | 1 | no change with or without drug | 1.12 | 1.35 | 0.34 |
| Muc1 | 1 | low cell count without drug only | -1.8 | -2.19 | -0.34 |
| Srrm4 | 1 | no change with or without drug | -1.46 | -0.17 | -1.35 |
| Doc2b | 1 | no change with or without drug | 0.56 | 1.69 | -0.45 |
| H3c8 | 1 | no change with or without drug | 1.24 | 0.51 | 1.01 |
| Cyp27b1 | 1 | no change with or without drug | 1.8 | 1.18 | 1.12 |
| CHD3 | 1 | no change with or without drug | -1.57 | -0.17 | -1.46 |
| Hgh1 | 1 | no change with or without drug | 0.67 | 0.17 | 0.67 |
| Or10ag2 | 1 | no change with or without drug | -0.34 | 1.18 | -1.01 |
| Klk1b24 | 1 | no change with or without drug | 1.46 | 0.84 | 1.01 |
| Nfkbia | 1 | no change with or without drug | 1.69 | -0.17 | 2.02 |
| Gsdmc2 | 1 | high cell count without drug only | 0.45 | 2.19 | -0.79 |
| Senp7 | 1 | no change with or without drug | 0.45 | 0.84 | 0 |
| Sft2d1 | 1 | no change with or without drug | 0.9 | 1.18 | 0.22 |
| Ly6a | 1 | no change with or without drug | 0.67 | -0.51 | 1.24 |
| Bpifb5 | 1 | no change with or without drug | 0.67 | 0.17 | 0.67 |
| Gpc1 | 1 | no change with or without drug | 0.34 | 0.17 | 0.34 |
| Map2k1 | 1 | no change with or without drug | 0.34 | 0.51 | 0.11 |
| Snx11 | 1 | no change with or without drug | -1.57 | -1.52 | -0.56 |
| Cd109 | 1 | no change with or without drug | -1.24 | -0.84 | -0.67 |
| Hfm1 | 1 | no change with or without drug | -1.35 | -0.17 | -1.24 |
| R74862 | 1 | no change with or without drug | -1.24 | -0.51 | -0.9 |
| Tmsb15l | 1 | no change with or without drug | -1.12 | 1.18 | -1.8 |
| Heatr3 | 1 | no change with or without drug | -1.35 | -0.17 | -1.24 |
| Or4x13 | 1 | no change with or without drug | 0.79 | 0.84 | 0.34 |
| Or4x13 | 2 | no change with or without drug | 0.9 | -1.18 | 2.02 |
| Ncoa3 | 1 | no change with or without drug | 1.12 | -1.85 | 2.92 |
| Cript | 1 | no change with or without drug | 0.67 | -0.17 | 0.9 |
| Tmem130 | 1 | no change with or without drug | 0.22 | -0.17 | 0.45 |
| Map3k7cl | 1 | no change with or without drug | 0.45 | -0.84 | 1.24 |
| Ksr1 | 1 | no change with or without drug | -0.67 | 0.17 | -0.67 |
| Gpr143 | 1 | high cell count without drug only | -0.56 | 2.87 | -2.14 |

Just “viability z-score with doxorubicin”, for 5 of the entries above:
Sergef	0
Antkmt	-0.45
Stxbp2	0.79
Ints9	-0.67
Slc39a7	-3.6 (active)
